# Laboratory results: the supplement of paper PMC12823440, “Inhibitors supercharge kinase turnover through native proteolytic circuits” (Nature, 2025)
# The chains behind the UniProt entries cited, without tags or fusion partners. Where a name states a change or a piece, a line headed by the entry shows the natural chain unless it says otherwise.
# UniProt P28482, whole entry: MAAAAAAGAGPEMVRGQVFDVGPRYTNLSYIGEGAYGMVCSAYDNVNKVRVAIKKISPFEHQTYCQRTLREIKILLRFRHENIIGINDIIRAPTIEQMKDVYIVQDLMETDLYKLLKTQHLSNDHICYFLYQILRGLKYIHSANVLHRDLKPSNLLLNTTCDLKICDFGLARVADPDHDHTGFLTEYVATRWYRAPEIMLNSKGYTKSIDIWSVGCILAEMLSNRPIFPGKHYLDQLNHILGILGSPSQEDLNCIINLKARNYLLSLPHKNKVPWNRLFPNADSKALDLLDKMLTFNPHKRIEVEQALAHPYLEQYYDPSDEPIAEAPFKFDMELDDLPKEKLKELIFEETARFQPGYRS
# UniProt P31152, whole entry: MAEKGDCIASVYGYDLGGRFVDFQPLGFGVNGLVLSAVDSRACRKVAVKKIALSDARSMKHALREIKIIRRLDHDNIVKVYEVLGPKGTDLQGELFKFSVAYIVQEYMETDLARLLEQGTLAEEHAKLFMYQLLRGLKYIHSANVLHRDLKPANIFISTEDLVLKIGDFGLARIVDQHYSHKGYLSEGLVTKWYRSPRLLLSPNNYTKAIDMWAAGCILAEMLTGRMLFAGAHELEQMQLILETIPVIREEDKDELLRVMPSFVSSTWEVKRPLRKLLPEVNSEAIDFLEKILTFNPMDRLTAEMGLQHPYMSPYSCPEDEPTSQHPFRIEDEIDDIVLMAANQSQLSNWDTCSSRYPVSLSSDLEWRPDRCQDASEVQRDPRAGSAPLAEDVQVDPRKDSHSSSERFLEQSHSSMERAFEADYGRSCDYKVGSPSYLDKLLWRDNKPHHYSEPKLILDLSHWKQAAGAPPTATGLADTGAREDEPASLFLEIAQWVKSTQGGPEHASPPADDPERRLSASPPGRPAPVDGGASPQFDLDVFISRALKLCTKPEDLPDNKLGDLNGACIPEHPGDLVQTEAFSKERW
# UniProt Q16620, whole entry, looked up: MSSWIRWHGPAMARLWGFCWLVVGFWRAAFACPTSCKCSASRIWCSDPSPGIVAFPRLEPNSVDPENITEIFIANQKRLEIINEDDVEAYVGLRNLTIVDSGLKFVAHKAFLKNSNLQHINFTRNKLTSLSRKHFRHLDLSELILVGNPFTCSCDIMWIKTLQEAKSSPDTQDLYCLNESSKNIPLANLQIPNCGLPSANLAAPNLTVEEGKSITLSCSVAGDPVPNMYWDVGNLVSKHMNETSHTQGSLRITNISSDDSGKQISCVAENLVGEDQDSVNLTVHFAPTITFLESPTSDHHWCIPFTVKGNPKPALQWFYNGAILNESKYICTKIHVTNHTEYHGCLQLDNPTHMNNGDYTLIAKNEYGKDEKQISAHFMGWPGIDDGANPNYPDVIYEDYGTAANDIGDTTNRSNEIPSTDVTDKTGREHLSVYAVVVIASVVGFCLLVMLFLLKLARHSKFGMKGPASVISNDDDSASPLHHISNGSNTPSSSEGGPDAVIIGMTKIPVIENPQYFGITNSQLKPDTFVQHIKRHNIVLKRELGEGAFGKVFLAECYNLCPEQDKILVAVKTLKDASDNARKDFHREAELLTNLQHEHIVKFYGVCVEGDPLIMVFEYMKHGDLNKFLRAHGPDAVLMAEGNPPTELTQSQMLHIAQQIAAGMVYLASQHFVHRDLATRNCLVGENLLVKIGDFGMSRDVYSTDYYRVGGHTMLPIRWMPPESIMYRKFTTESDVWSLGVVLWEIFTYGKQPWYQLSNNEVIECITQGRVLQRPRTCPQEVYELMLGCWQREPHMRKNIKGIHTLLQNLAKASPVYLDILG
# UniProt Q16288, whole entry, looked up: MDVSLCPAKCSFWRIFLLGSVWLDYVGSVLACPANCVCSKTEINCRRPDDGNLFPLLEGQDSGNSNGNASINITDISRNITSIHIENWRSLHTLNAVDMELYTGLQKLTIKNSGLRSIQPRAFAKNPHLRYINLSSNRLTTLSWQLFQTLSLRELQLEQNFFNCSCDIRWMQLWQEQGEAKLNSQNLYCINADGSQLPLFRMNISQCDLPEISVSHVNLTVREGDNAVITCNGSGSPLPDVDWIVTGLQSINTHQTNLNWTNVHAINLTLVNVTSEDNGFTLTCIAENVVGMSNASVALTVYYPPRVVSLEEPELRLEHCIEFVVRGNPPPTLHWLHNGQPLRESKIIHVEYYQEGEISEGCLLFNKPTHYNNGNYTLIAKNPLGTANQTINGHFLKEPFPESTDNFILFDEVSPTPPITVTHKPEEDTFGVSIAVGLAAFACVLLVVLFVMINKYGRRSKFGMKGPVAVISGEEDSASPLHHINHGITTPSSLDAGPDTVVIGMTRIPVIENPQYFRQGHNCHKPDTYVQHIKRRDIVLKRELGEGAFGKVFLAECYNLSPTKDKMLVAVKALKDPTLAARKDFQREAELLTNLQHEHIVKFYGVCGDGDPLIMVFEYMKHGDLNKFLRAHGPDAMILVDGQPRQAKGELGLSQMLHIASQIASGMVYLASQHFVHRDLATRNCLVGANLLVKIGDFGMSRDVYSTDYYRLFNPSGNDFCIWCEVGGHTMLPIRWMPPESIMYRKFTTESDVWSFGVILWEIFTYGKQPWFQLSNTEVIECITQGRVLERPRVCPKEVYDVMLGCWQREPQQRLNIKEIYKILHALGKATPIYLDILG
# UniProt O96013: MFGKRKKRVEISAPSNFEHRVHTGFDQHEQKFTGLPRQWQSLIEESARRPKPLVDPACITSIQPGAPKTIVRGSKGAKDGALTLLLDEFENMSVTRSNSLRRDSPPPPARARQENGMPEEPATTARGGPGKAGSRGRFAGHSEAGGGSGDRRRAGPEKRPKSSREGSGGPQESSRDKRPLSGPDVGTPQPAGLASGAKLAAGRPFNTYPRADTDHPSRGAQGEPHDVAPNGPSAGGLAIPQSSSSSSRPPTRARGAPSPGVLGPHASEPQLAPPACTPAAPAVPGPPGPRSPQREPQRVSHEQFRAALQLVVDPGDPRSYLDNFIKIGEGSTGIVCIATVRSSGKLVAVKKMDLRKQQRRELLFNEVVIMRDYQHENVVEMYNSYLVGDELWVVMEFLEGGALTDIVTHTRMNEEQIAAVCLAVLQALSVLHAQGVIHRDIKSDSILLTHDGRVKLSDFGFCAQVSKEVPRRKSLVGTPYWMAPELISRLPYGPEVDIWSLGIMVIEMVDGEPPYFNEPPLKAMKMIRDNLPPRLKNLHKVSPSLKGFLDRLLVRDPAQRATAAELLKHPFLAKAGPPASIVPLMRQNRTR
# UniProt P09619, whole entry: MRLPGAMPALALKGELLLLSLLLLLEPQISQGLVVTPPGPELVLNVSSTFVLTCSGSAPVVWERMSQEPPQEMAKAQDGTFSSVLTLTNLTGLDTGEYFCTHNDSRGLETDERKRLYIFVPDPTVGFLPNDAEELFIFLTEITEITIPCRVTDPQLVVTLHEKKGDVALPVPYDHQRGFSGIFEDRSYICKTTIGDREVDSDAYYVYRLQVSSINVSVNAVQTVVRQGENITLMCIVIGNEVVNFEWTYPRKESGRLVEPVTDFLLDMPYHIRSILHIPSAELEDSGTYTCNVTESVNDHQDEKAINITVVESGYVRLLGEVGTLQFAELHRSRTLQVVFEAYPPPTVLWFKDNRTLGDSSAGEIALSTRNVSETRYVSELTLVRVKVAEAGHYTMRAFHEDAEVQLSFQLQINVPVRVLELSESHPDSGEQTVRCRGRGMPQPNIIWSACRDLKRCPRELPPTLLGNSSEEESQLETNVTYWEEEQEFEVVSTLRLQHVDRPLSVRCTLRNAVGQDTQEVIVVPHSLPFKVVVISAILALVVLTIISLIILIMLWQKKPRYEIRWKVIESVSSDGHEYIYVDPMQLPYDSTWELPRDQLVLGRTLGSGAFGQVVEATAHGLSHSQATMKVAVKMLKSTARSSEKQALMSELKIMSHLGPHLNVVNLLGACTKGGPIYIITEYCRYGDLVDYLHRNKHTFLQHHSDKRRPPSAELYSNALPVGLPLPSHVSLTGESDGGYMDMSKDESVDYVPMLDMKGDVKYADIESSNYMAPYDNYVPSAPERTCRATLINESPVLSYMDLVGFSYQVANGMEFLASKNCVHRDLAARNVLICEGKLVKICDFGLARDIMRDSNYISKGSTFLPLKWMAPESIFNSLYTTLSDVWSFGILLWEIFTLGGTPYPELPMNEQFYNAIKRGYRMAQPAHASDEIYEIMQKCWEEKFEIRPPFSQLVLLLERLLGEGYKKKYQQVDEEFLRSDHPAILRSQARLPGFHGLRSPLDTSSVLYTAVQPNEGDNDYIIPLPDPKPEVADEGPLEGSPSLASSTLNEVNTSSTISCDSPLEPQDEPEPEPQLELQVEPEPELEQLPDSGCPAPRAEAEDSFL
# UniProt O15530: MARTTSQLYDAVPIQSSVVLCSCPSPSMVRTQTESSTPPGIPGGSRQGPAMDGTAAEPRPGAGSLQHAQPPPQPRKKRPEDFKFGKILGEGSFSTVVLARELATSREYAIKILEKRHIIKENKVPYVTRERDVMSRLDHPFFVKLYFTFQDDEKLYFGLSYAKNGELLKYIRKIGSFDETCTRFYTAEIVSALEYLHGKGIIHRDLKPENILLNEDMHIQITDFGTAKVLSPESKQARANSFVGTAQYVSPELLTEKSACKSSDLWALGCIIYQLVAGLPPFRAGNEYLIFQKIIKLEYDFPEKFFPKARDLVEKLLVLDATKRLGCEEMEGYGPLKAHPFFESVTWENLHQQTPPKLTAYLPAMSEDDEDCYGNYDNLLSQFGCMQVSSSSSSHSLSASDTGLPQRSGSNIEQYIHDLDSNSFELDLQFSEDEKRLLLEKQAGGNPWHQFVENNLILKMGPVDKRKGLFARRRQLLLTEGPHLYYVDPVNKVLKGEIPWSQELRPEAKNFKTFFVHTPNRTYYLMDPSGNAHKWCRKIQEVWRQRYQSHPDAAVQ
# UniProt Q05397, whole entry, looked up: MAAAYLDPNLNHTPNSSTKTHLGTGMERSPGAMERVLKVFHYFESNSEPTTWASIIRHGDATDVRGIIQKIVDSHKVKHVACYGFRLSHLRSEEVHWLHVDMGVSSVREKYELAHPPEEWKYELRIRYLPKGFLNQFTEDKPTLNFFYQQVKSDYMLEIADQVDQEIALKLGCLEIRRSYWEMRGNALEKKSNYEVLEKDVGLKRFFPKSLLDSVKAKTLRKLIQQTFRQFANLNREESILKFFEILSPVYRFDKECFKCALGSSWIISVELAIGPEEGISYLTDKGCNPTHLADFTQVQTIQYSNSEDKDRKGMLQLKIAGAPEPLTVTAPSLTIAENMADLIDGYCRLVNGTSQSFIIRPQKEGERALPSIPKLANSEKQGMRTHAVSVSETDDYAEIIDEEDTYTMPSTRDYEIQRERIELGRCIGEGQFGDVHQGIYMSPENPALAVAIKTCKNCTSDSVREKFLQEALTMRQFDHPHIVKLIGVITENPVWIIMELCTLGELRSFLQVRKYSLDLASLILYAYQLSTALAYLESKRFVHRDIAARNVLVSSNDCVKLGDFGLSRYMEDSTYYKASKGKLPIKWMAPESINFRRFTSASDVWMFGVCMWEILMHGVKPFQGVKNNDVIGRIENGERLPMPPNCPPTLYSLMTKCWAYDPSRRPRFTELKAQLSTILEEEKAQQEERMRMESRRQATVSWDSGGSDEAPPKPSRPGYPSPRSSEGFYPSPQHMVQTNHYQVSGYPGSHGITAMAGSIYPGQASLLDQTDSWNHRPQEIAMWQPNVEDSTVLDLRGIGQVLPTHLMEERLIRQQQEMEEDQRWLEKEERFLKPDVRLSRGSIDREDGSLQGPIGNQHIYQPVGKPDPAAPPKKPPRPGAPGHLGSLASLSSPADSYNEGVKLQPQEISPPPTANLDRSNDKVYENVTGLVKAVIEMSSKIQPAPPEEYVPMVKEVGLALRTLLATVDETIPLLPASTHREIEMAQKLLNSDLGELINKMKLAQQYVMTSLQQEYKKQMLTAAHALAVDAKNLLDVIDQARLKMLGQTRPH
# Structures can show the parent of a compound that is named as a salt. This is one part of the list. The calls rarely recur for the same compound in another form.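 Kinases were expressed as nanoluciferase fusions in K562 cells and luminescence was read every 4 h between 2 and 18 h as percent of control, DMSO set to 100% and a positive control to 0%. A time point counts as decreased when the signal drops significantly (2 sigma). The hit call is the authors' own, does not follow from the count of time points alone, and its rule is not shown.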
# Experiments:
# Assay in all cases: kinase-Nluc reporter destabilization hit call (1 = scored as downregulated) (binary); higher = compound decreases kinase abundance
# Settings in all cases: K562; 2-18 h
# MAPK1 = MAPK1 (UniProt P28482)
# MAPK4 = MAPK4 (UniProt P31152)
# MAPKAPK2 = MAPKAPK2 (UniProt P49137)
# MKNK1 = MKNK1 (UniProt Q9BUB5)
# NTRK2 = NTRK2 (UniProt Q16620)
# NTRK3 = NTRK3 (UniProt Q16288)
# PAK4 = PAK4 (UniProt O96013)
# PBK = PBK (UniProt Q96KB5)
# PDGFRB = PDGFRB (UniProt P09619)
# PDK1 = PDK1 (UniProt Q15118)
# PDPK1 = PDPK1 (UniProt O15530)
# PIK4CA = PIK4CA (UniProt P42356)
# PIK4CB = PIK4CB (UniProt Q9UBF8)
# PLK1 = PLK1 (UniProt P53350)
# PRKAA1 = PRKAA1 (UniProt Q13131)
# PRKCA = PRKCA (UniProt P17252)
# PTK2 = PTK2 (UniProt Q05397)
# PTK2B = PTK2B (UniProt Q14289)
# RAF1 = RAF1 (UniProt P04049)
# [1] = molecular target: RAF1_S257L (clone: RAF1_mut) (UniProt P04049)
SMILES,kinase-Nluc reporter destabilization hit call (MAPK1),kinase-Nluc reporter destabilization hit call (MAPK4),kinase-Nluc reporter destabilization hit call (MAPKAPK2),kinase-Nluc reporter destabilization hit call (MKNK1),kinase-Nluc reporter destabilization hit call (NTRK2),kinase-Nluc reporter destabilization hit call (NTRK3),kinase-Nluc reporter destabilization hit call (PAK4),kinase-Nluc reporter destabilization hit call (PBK),kinase-Nluc reporter destabilization hit call (PDGFRB),kinase-Nluc reporter destabilization hit call (PDK1),kinase-Nluc reporter destabilization hit call (PDPK1),kinase-Nluc reporter destabilization hit call (PIK4CA),kinase-Nluc reporter destabilization hit call (PIK4CB),kinase-Nluc reporter destabilization hit call (PLK1),kinase-Nluc reporter destabilization hit call (PRKAA1),kinase-Nluc reporter destabilization hit call (PRKCA),kinase-Nluc reporter destabilization hit call (PTK2),kinase-Nluc reporter destabilization hit call (PTK2B),kinase-Nluc reporter destabilization hit call (RAF1),kinase-Nluc reporter destabilization hit call [1]
O=C(NCc1ccn[nH]1)c1cc([C@@H]2CCNC[C@H]2COc2ccc3c(c2)OCO3)ccc1F [GRK2-IN-1 (hydrochloride)] (10 µM),inactive: 0,inactive: 0,inactive: 0,inactive: 0,inactive: 0,inactive: 0,inactive: 0,inactive: 0,inactive: 0,inactive: 0,inactive: 0,inactive: 0,inactive: 0,inactive: 0,inactive: 0,inactive: 0,inactive: 0,inactive: 0,inactive: 0,inactive: 0
Fc1ccc(Cl)cc1-c1nc(Nc2ccncc2)c2nccnc2n1 (10 µM),inactive: 0,inactive: 0,inactive: 0,inactive: 0,inactive: 0,inactive: 0,inactive: 0,inactive: 0,inactive: 0,inactive: 0,inactive: 0,inactive: 0,inactive: 0,inactive: 0,inactive: 0,inactive: 0,inactive: 0,,inactive: 0,inactive: 0
CS(=O)(=O)c1cccc(CNc2nc(Nc3ccc4c(c3)CCC(=O)N4)ncc2C(F)(F)F)c1 (10 µM),inactive: 0,inactive: 0,inactive: 0,inactive: 0,inactive: 0,inactive: 0,inactive: 0,inactive: 0,inactive: 0,inactive: 0,inactive: 0,inactive: 0,inactive: 0,inactive: 0,inactive: 0,inactive: 0,,inactive: 0,inactive: 0,inactive: 0
O=C(Nc1ccnc(NC(=O)C2CC2)c1)c1c(Cl)cccc1Cl (10 µM),inactive: 0,inactive: 0,inactive: 0,inactive: 0,inactive: 0,inactive: 0,inactive: 0,inactive: 0,inactive: 0,inactive: 0,inactive: 0,inactive: 0,inactive: 0,inactive: 0,inactive: 0,inactive: 0,inactive: 0,inactive: 0,inactive: 0,inactive: 0
CC(C)=CCC[C@](C)(O[C@@H]1O[C@H](CO[C@@H]2O[C@H](CO)[C@@H](O)[C@H](O)[C@H]2O)[C@@H](O)[C@H](O)[C@H]1O)[C@H]1CC[C@]2(C)[C@@H]1[C@H](O)C[C@@H]1[C@@]3(C)CC[C@H](O[C@@H]4O[C@H](CO)[C@@H](O)[C@H](O)[C@H]4O[C@@H]4O[C@H](CO)[C@@H](O)[C@H](O)[C@H]4O)C(C)(C)[C@@H]3CC[C@]12C [Ginsenoside Rb1] (10 µM),inactive: 0,inactive: 0,inactive: 0,inactive: 0,inactive: 0,inactive: 0,inactive: 0,inactive: 0,inactive: 0,inactive: 0,inactive: 0,inactive: 0,inactive: 0,inactive: 0,,inactive: 0,inactive: 0,inactive: 0,inactive: 0,inactive: 0
NC(=O)c1ccccc1Nc1ccnc(Nc2cccc(O)c2)n1 (10 µM),inactive: 0,inactive: 0,inactive: 0,inactive: 0,inactive: 0,inactive: 0,inactive: 0,inactive: 0,inactive: 0,inactive: 0,inactive: 0,inactive: 0,inactive: 0,,inactive: 0,inactive: 0,inactive: 0,inactive: 0,inactive: 0,active: 1
CCc1cc(Nc2nccc(-c3c(-c4ccc(OC)c(C(=O)Nc5c(F)cccc5F)c4)nc4ccccn34)n2)c(OC)cc1N1CCC(N2CCN(S(C)(=O)=O)CC2)CC1 (2.5 µM),inactive: 0,inactive: 0,inactive: 0,inactive: 0,inactive: 0,inactive: 0,inactive: 0,inactive: 0,inactive: 0,inactive: 0,inactive: 0,inactive: 0,inactive: 0,inactive: 0,inactive: 0,inactive: 0,inactive: 0,,inactive: 0,inactive: 0
C=CC(=O)Nc1cccc(Oc2nc(Nc3ccc(N4CCN(C)CC4)cc3OC)ncc2Cl)c1 (10 µM),inactive: 0,inactive: 0,inactive: 0,inactive: 0,,inactive: 0,inactive: 0,inactive: 0,inactive: 0,inactive: 0,inactive: 0,inactive: 0,inactive: 0,inactive: 0,inactive: 0,inactive: 0,inactive: 0,inactive: 0,inactive: 0,inactive: 0
CN1C(=O)N[C@@H](Cc2c[nH]c3c(Cl)cccc23)C1=O [Necrostatin 2 (S enantiomer)] (10 µM),inactive: 0,inactive: 0,inactive: 0,inactive: 0,,inactive: 0,inactive: 0,inactive: 0,inactive: 0,inactive: 0,inactive: 0,inactive: 0,inactive: 0,inactive: 0,inactive: 0,inactive: 0,inactive: 0,inactive: 0,inactive: 0,inactive: 0
Cn1cc(C2=C(c3ccc(Cl)cc3Cl)C(=O)NC2=O)c2ccccc21 (10 µM),inactive: 0,inactive: 0,inactive: 0,inactive: 0,,inactive: 0,inactive: 0,inactive: 0,inactive: 0,inactive: 0,inactive: 0,inactive: 0,inactive: 0,inactive: 0,inactive: 0,inactive: 0,inactive: 0,inactive: 0,inactive: 0,inactive: 0
O=C1NC(=O)C(Cc2c[nH]c3c(Cl)cccc23)N1 (stereo not given) [Necroptosis-IN-1] (10 µM),inactive: 0,inactive: 0,inactive: 0,inactive: 0,,inactive: 0,inactive: 0,inactive: 0,inactive: 0,inactive: 0,inactive: 0,inactive: 0,inactive: 0,inactive: 0,inactive: 0,inactive: 0,inactive: 0,inactive: 0,inactive: 0,inactive: 0
COc1ccc(CCNCc2ccc(OCc3ccc(Cl)nc3)c(OC)c2)cc1OC [SBE13 (Hydrochloride)] (10 µM),inactive: 0,inactive: 0,inactive: 0,inactive: 0,,inactive: 0,inactive: 0,inactive: 0,inactive: 0,inactive: 0,inactive: 0,inactive: 0,inactive: 0,inactive: 0,inactive: 0,inactive: 0,inactive: 0,inactive: 0,inactive: 0,inactive: 0

# Only kinase-Nluc reporter destabilization hit call (PAK4), for 2 of the compounds above:
SMILES	kinase-Nluc reporter destabilization hit call (PAK4)
C=CC(=O)Nc1cccc(Oc2nc(Nc3ccc(N4CCN(C)CC4)cc3OC)ncc2Cl)c1 (10 µM)	inactive: 0
CN1C(=O)N[C@@H](Cc2c[nH]c3c(Cl)cccc23)C1=O [Necrostatin 2 (S enantiomer)] (10 µM)	inactive: 0
